Data as given in PubChem BioAssay AID504808 (Drosophila RNAi Screening Center, 2011)

Assay: 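Genes whose loss lifts activity of an E2F-responsive reporter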 (primary screen)
Cell system: Drosophila S2 cells
Reagents: long dsRNA against Drosophila genes
Detection: 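Dual luciferase plate measurements; E2F-specific signal taken as firefly over Renilla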
Reading the numbers: E2F firefly: higher = more E2F reporter activity; Renilla normaliser: higher = more normaliser reporter signal
Hit rule: 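a knock-down counted as active when the firefly/Renilla E2F signal rose above 50%, a threshold chosen arbitrarily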
The screen tested about 21,000 reagents; this is a random part of those with a known target gene and a result. Over the whole deposit, 18 (0.084%) were called active. 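Raw counts without plate normalisation, one of two replicates; the ratio scores behind the calls were not deposited.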 Reagents against one gene are numbered here. Names joined by + are all predicted targets of the reagent. No sequences are given here. The record does not give: the amount of reagent, the time to read-out.

no.	predicted target	reagent	E2F firefly, rep 1	Renilla normaliser, rep 1	Outcome
1	CG7443	1	1.46e5	6753	inactive
2	CG14297	1	1.55e5	10171	inactive
3	PlexA (Plexin A)	1	2165	980	inactive
4	E(spl)m2-BFM (Enhancer of split m2, Bearded family member)	1	55098	5232	inactive
5	Stip1 (Stress induced phosphoprotein 1)	1	94345	3540	inactive
6	CG32642	1	86264	2667	inactive
7	CG2233	1	7822	792	inactive
8	Lamtor2 + CG30120	1	1.54e5	6280	inactive
9	Lamtor2 + CG30120	2	1.33e5	5072	inactive
10	CG32537	1	1.74e5	5803	inactive
11	Dus2 (Dihydrouridine synthase 2)	1	7859	740	inactive
12	Eip63E (Ecdysone-induced protein 63E)	1	61187	3254	inactive
13	snsl (snustorr snarlik)	1	1.39e5	5097	inactive
14	EloA (Elongin A)	1	73679	3984	inactive
15	SrpRalpha (Signal recognition particle receptor alpha)	1	7675	712	inactive
16	rempA (reduced mechanoreceptor potential A)	1	1.78e5	5551	inactive
17	Hrs (Hepatocyte growth factor regulated tyrosine kinase substrate)	1	96406	3957	inactive
18	CG7988	1	1.47e5	7338	inactive
19	CG4328	1	88319	5023	inactive
20	CG7655	1	65476	3045	inactive
21	CG11970	1	70072	4095	inactive
22	CG30031 + deltaTry + CG30025 + 1 more	1	1.37e5	6171	inactive
23	CG11106	1	1.16e5	6003	inactive
24	CG10068	1	65329	3465	inactive
25	Task6 (TWIK-related acid-sensitive K[+] channel 6)	1	1.22e5	6811	inactive
26	CG11307	1	82364	3871	inactive
27	Dcp-1 (Death caspase-1)	1	78429	3058	inactive
28	CG18132	1	1.70e5	6450	inactive
29	CG6472	1	1.62e5	5577	inactive
30	Rat1 (Rat1 5'-3' exoribonuclease)	1	99139	4395	inactive
31	CG5111	1	98297	5731	inactive
32	gro (groucho)	1	1951	1376	inactive
33	Pcyt1 (Phosphocholine cytidylyltransferase 1)	1	68360	3587	inactive
34	CG16956	1	1.09e5	4385	inactive
35	CG6329	1	154	25	inactive
36	l(2)k05819 (lethal (2) k05819)	1	92148	3566	inactive
37	CG11309	1	84235	3284	inactive
38	mRpS16 (mitochondrial ribosomal protein S16)	1	95373	4482	inactive
39	HipHop (HP1-HOAP-interacting protein)	1	68534	3468	inactive
40	St2 (Sulfotransferase 2)	1	1.30e5	5802	inactive
41	pod1 (pod1 coronin)	1	8176	760	inactive

Continued (3 carried over from the part before).
no.	predicted target	reagent	E2F firefly, rep 1	Renilla normaliser, rep 1	Outcome
39	HipHop (HP1-HOAP-interacting protein)	1	68534	3468	inactive
40	St2 (Sulfotransferase 2)	1	1.30e5	5802	inactive
41	pod1 (pod1 coronin)	1	8176	760	inactive
42	Slc45-1	1	79072	3730	inactive
43	CG1227	1	81910	3691	inactive
44	Unc-115b + p24-2 + Unc-115a	1	1.47e5	7671	inactive
45	CG8915	1	1.53e5	5819	inactive
46	Nf1 (Neurofibromin 1)	1	1788	876	inactive
47	CG14625	1	1.05e5	5281	inactive
48	Mtk (Metchnikowin)	1	1.05e5	4168	inactive
49	CG15625	1	1.35e5	5204	inactive
50	CG42709	1	83023	3658	inactive
51	c(2)M (crossover suppressor on 2 of Manheim)	1	92926	3478	inactive
52	eIF4A (eukaryotic translation initiation factor 4A)	1	1.24e5	5382	inactive
53	CG11986	1	59473	3370	inactive
54	LSm3 (Like Sm 3)	1	1.17e5	6269	inactive
55	Samtor (S-adenosylmethionine sensor upstream of TORC1)	1	84342	2906	inactive
56	Surf1 (Surfeit 1)	1	85629	3833	inactive
57	Surf1 (Surfeit 1)	2	66308	3450	inactive
58	Polr2B (RNA polymerase II subunit B)	1	52553	3874	inactive
59	gsb-n (gooseberry-neuro)	1	1.29e5	5150	inactive
60	gsb-n (gooseberry-neuro)	2	1.25e5	5278	inactive
61	CG31219	1	1.40e5	8051	inactive
62	CG4438	1	1.37e5	4927	inactive
63	Diap1 (Death-associated inhibitor of apoptosis 1)	1	31008	2523	inactive
64	Hacd2 (3-hydroxyacyl-CoA dehydratase 2)	1	1.02e5	4566	inactive
65	Or35a (Odorant receptor 35a)	1	98142	4544	inactive
66	seq (sequoia)	1	1.06e5	3948	inactive
67	Ibf1 (Insulator binding factor 1)	1	1.27e5	5806	inactive
68	CG9098	1	77449	3722	inactive
69	Cftr (CF transmembrane conductance regulator)	1	81205	3572	inactive
70	sp3 (spermathreecae)	1	1.41e5	8348	inactive
71	CG11808	1	77075	3256	inactive
72	CG14120	1	1.30e5	5932	inactive
73	CG6638	1	1.00e5	4037	inactive
74	ng1 (new glue 1)	1	1.13e5	6414	inactive
75	IscU (Iron-sulfur cluster assembly enzyme)	1	1.31e5	7890	inactive
76	Tsp42Eb + CG30160	1	1.43e5	5426	inactive
77	Tsp42Eb + CG30160	2	1.43e5	4956	inactive
78	CG13047	1	1.81e5	9066	inactive
79	CG32971	1	1.30e5	5199	inactive
80	beat-Va (beaten path Va)	1	1.29e5	5432	inactive
81	CG15236	1	1.63e5	4966	inactive
82	CG12617	1	1.09e5	4481	inactive
83	CG11586	1	67019	3190	inactive
84	eyg (eyegone)	1	71766	3982	inactive
